How the values were obtained:
[1] = Electronic tongue: change in umami with respect to pH (citric acid buffer); settings: pH 4.0, 7.0, 10.0
Method: Each sample (10 mg) was dissolved in 100 mL of purified water and injected into the vial for electronic tongue analysis. To remove solid particles and fine particles that could interfere with the analysis, the samples were pre-treated by filtration to give liquid samples. The sample solution was loaded into the sampler of the electronic tongue system. The sensors were immersed in the sample solution for 2 minutes to measure, through contact with the sample, the intensity of taste components associated with each sensor. To minimize errors from cross-contamination between samples, the sensors were thoroughly washed with purified water between each analysis, and then used for the next sample analysis. Each sample was repeatedly analyzed five times.
Furthermore, to investigate a change in umami of tyrosine peptide in response to pH variations, experiments were conducted at acidic, neutral, and alkaline pH ranges. The pH values used were 4.0, 7.0, and 10.0. Buffer solutions containing citric acid were utilized for the experiments.
Therefore, it can be concluded that the umami components present in the two samples have stability against pH variations.

[2] = Electronic tongue, purified water samples: comparison of umami intensity with amino acids; settings: same concentration, FIG. 1
Method: The taste component pattern of the yogurt samples was analyzed by using an electronic sensor. Specifically, the analysis was conducted by using an electronic tongue system (ASTREE, Alpha MOS, Toulouse, France) equipped with sensors for five basic taste components perceived by humans: sourness (SRS), saltiness (STS), umami (UMS), sweetness (SWS), and bitterness (BRS). Additional sensors, GPS and SPS, were used as reference values for calibration. For analysis of the water-soluble taste components, 10 mL of the test sample were dissolved in 90 mL of purified water in a vial specifically designed for electronic tongue analysis. The sample solution was then loaded into the sampler of the electronic tongue system. The sensors were immersed in the sample solution for 2 minutes to measure, through contact with the sample, the intensity of taste components associated with each sensor. To minimize errors from cross-contamination between samples, the sensors were washed with purified water between each analysis. Individual results were obtained as taste pattern for each taste component, and the taste component pattern among the samples was examined through principal component analysis (PCA).
Each sample (10 mg) was dissolved in 100 mL of purified water and injected into the vial for electronic tongue analysis. […] Each sample was repeatedly analyzed five times.

Substance | change in umami intensity with respect to pH variations [1] | umami intensity relative to the individual amino acids Gln, Tyr and Trp [2]
H-Tyr-Trp-OH [YW] | no significant change | almost twice as strong
H-Tyr-Gln-OH [YQ] | no significant change | almost twice as strong

From patent publication US12653217B2, “Composition for enhancing umami comprising tyrosine-amino acid peptide and use thereof” (INDUSTRY-ACADEMIC COOPERATION FOUNDATION GYEONGSANG …, priority 2021, dated 2026)
